## Screening data, single-dose tests

Results are given as percent effect.
How 0% and 100% were set is not recorded. Most values in the screen are low, and negative values occur.
Compounds were drawn at random from those tested, without regard to their results.

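Assay of Toxoplasma gondii numbers, read through their beta-galactosidase reporter with a colour substrate. Concentration: 50 µM. The record gives no direction; the compounds picked for IC50 retests had high values, so higher reads as fewer parasites. Size under these conditions: about 18,000 compounds, about 170 of them at 50% or above in at least one test.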

| structure | percent effect |
|---|---|
| `Cc1cccnc1C(=O)NC(c1nccn1C)C(C)C` (configuration not stated) | 11.03% |
| `Cc1nn(C)cc1C(C)NC(=O)CNc1ccccc1` (configuration not stated) | -0.7115% |
| `COc1ccccc1CC(=O)NCC(O)C(F)F` (configuration not stated) | -2.982% |
| `CN(CCCN)C(=O)Cc1cccc(Cl)c1` | -0.9197% |
| `CC(C(N)=O)N1CCC(C(=O)NC2CCCCC2)CC1` (configuration not stated) | -14.12% |
| `NCC(O)C1CCOCC1` (configuration not stated) | -28.3% |
| `CN(C)C(=O)CSc1nnc(-c2ccccc2F)o1` | -6.06% |
| `CN1CCCN(C(=O)c2ccc(F)cc2)CC1` | -9.289% |
| `CCc1cc(C(=O)NCC(=O)C(C)C)[nH]n1` | -8.034% |
| `CC[C@H](C)[C@H](N)C(=O)N(C)C` | -7.087% |
| `O=C1OCCN1CCN1CCOC1=O` | -25.77% |
| `COCC(NC(=O)c1cccc(Cl)c1F)C(N)=O` (configuration not stated) | 8.931% |
| `O=C(NCCOCc1ccc(Cl)cc1)C1CNCCO1` (configuration not stated) | 12.2% |
| `COC(=O)c1snc(-c2ccccc2)c1N` | 3.849% |
| `Nc1ncccc1CN1CCC(N2CCCCC2)C1` (configuration not stated) | -3.855% |
| `CCn1nc(C)cc1C(=O)NCCCc1ncc[nH]1` | 2.921% |
| `CCN(CCc1ccccc1)C(=O)CN1CSCC1=O` | -3.636% |
| `CCc1nc(CNc2ncccc2S(N)(=O)=O)cs1` | -12.33% |
| `O=C(CCS(=O)(=O)CCO)Nc1ccccc1` | -26.01% |
| `CCC(C)C(=O)Nc1ccc(C(=O)N2CCCC2)cc1` (configuration not stated) | -4.343% |
| `CC(C)(C)OC(=O)NCCC1CCNCC1` | -1.4% |
| `O=C(c1cnn(-c2ccccc2)c1)N1CCCCC1` | -4.798% |
| `CCN1CCN(CC(=O)Nc2c(C)cccc2C)CC1` | -1.714% |
| `CCSC(C)C(=O)N(C)CCc1ccncc1` (configuration not stated) | -15.68% |
| `N[C@H]1[C@@H]2CC[C@H]1CN(CCn1cc(Cl)cn1)C2` | 17.19% |
| `CCn1cc(CN)cn1` | 15% |
| `COCCC1(C(=O)N2CCC(CO)C2)CCC1` (configuration not stated) | -0.4771% |
| `CCCN(CC(=O)NC)C(=O)c1ccc(C)[nH]c1=O` | -7.382% |
| `O=C(NC1CCCSC1)N[C@H](CO)Cc1ccccc1` (some centres not stated) | 1.879% |
| `CCCn1nc(C(=O)NCc2ccccn2)ccc1=O` | 4.79% |
| `CC(C)C(N)C(=O)N1CCOCC1` (configuration not stated) | -0.2899% |
| `NC(=O)c1noc2c1CCCC2` | -29.64% |
| `O=C(NC1=NCCS1)C1CCCN1` (configuration not stated) | -2.759% |
| `OC1CCN(Cc2nc(-c3ccccc3Cl)no2)CC1` | -27.37% |
| `CN(C)c1ncccc1CNC(=O)c1ccoc1` | -3.271% |
| `CCc1ccccc1NC(=O)CSCC(N)=O` | -2.1% |
| `CNCc1cn2c(n1)CCCC2` | -9.981% |
| `c1ccc(OCC2CNCCO2)cc1` (configuration not stated) | 1.091% |
| `N#CC(c1ccc(Br)cc1)N1CCNCC1` (configuration not stated) | -9.057% |
| `OCCNCCNCc1cccc(Cl)c1Cl` | 5.539% |
| `NCC1CCN(C(=O)c2ccc(Cl)cc2O)C1` (configuration not stated) | -7.093% |
| `CS(=O)(=O)N1CCC(NC(=O)c2cccc(Cl)c2)CC1` | -5.783% |
| `COCCN(Cc1cccs1)C(=O)c1ccncc1Cl` | -12.38% |
| `CCNC(=O)NCc1ncoc1C` | -6.658% |
| `O=C(CCc1ccccc1)NCCNc1cnccn1` | -4.636% |
| `CCOc1cc(NCc2ccccc2CO)ncn1` | 5.349% |
| `CC(C)N1CCN(CCCSc2nnnn2C)CC1` | -4.116% |
| `Cc1nc2ccc(CO)cc2s1` | -3.048% |
| `CN(C)CCNC(=O)c1cccs1` | -20.89% |
| `CCCc1cc(C(=O)NC(C)c2nncn2C)no1` (configuration not stated) | -4.607% |
| `N#Cc1ccnc(NCCC(=O)NC2CCCCC2)c1` | -3.332% |
| `OC1(CN2CCc3ccccc3C2)CNCCOC1` (configuration not stated) | 0.1868% |
| `CCNC(=O)CN1CCCC(CC)(CO)C1` (configuration not stated) | 5.886% |
| `Cc1nn(C)c2nc(NCCSc3ncn[nH]3)sc12` | 6.413% |
| `CCOCCC1(N)CCCC1` | 7.843% |
| `CC(C)[C@H](N)C(=O)N1CCC(C2CCOCC2)CC1` | 8.319% |
| `COCC1=Nc2ccccc2CN1` | -18.99% |
| `CCCC(C#N)NC(=O)c1ccc(NC2CC2)nc1` (configuration not stated) | -10.19% |
| `COCCCN1CCC(CNc2cc(C)nc(N)n2)C1` (configuration not stated) | 0.4936% |
| `OCC1Cc2ccccc2N1` (configuration not stated) | -41.09% |
| `Cc1nnc(CNC(=O)CCCN2CCCC2=O)s1` | 7.202% |
| `COC(C(=O)NCc1ccncn1)c1ccccc1` (configuration not stated) | -16.23% |
| `Cc1cc(CN)c(C)o1` | -15.73% |
| `Cc1ocnc1C(=O)N1CCC(O)c2ccccc2C1` (configuration not stated) | 17.02% |
| `N#Cc1cc(Br)cc(S(=O)(=O)NCCCN)c1` | 10.37% |
| `CNCCc1ccccc1OC` | 19.54% |
| `CC(C)(C)OCCOc1ccc(OCCO)cc1` | 2.925% |
| `CCOC(=O)N1CCC(NCc2ccncc2)CC1` | -18.1% |
| `CC(=O)Nc1ccc(C2=NN=C(NC3CC3)SC2)cc1` | -0.7859% |
| `NCC(=O)NCCN1CCCCCC1` | 12.87% |
| `CC1CN(C(=O)[C@H](O)c2ccccc2)CCS1` (some centres not stated) | -7.412% |
| `Cc1nnc(CNC(=O)C2CC(=O)N(C(C)(C)C)C2)o1` (configuration not stated) | -9.983% |
| `CC(C)N1C(=O)CC(NC(=O)c2cc(Br)c[nH]2)C1=O` (configuration not stated) | -7.98% |
| `Cc1ccc(-c2noc(CNS(C)(=O)=O)n2)cc1` | 3.862% |
| `CC(C)CNc1cc(CN(C)C)ccn1` | -5.324% |
| `CC(=O)NCCNC(=O)COc1c(C)cccc1C` | -20.13% |
| `CS(=O)(=O)CC1(CNCc2cccc(O)c2)CC1` | -16.41% |
| `NC(=O)C1CCN(C(=O)c2cc3cc(Br)ccc3o2)C1` (configuration not stated) | 10.59% |
| `CCC1CN(CC(=O)N(C)C2CC2)CCS1` (configuration not stated) | 15.6% |
| `CCc1ccsc1C(=O)NCC(C)N1CCN(C)CC1` (configuration not stated) | 14.7% |
| `Cc1nn(CC(=O)N[C@H]2C[C@@H]3OCC[C@H]23)c(C)c1Cl` | -10.32% |
| `CC1(CO)CCCCN1` (configuration not stated) | 0.3483% |
| `CN(C)C1CCCN(C(=O)NCCc2ccco2)C1` (configuration not stated) | 2.241% |
| `CC(=O)N(C)C1CCN(Cc2cccc(F)c2)CC1` | -10.53% |
| `CCOc1ccccc1CN(CC(O)CO)C1CC1` (configuration not stated) | -0.4834% |
| `CC(C)Oc1ncc(C(=O)N2CCC(O)CC2)cc1Cl` | 36.34% |

Once more, the final 11:

- CC(=O)NCCNC(=O)COc1c(C)cccc1C | -20.13%
- CS(=O)(=O)CC1(CNCc2cccc(O)c2)CC1 | -16.41%
- NC(=O)C1CCN(C(=O)c2cc3cc(Br)ccc3o2)C1 (configuration not stated) | 10.59%
- CCC1CN(CC(=O)N(C)C2CC2)CCS1 (configuration not stated) | 15.6%
- CCc1ccsc1C(=O)NCC(C)N1CCN(C)CC1 (configuration not stated) | 14.7%
- Cc1nn(CC(=O)N[C@H]2C[C@@H]3OCC[C@H]23)c(C)c1Cl | -10.32%
- CC1(CO)CCCCN1 (configuration not stated) | 0.3483%
- CN(C)C1CCCN(C(=O)NCCc2ccco2)C1 (configuration not stated) | 2.241%
- CC(=O)N(C)C1CCN(Cc2cccc(F)c2)CC1 | -10.53%
- CCOc1ccccc1CN(CC(O)CO)C1CC1 (configuration not stated) | -0.4834%
- CC(C)Oc1ncc(C(=O)N2CCC(O)CC2)cc1Cl | 36.34%

Source: ChEMBL document CHEMBL3988442, “University of Dundee, Small-Polar-MMV Screening Library” (2021).